Cell number change and AC50 data for 60 compounds are collected here from PubChem BioAssay AID2685 (National Center for Advancing Translational Sciences (NCATS), 2010).

In general, AC50 refers to the concentration giving half of the maximal activity seen. Read a low AC50 as activity at low concentration.

Molecules are shown by their SMILES. Some of the results follow. Shown are side measurements of this screen, not its main read-out; they come without a call. Compounds called inactive in the main read-out are mostly missing here. The note in brackets gives the kind of curve behind each potency; many fits are weak.

The assay is described as follows: qHTS Assay for Lipid Storage Modulators in Drosophila S3 Cells.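 As to Cell number change: cells counted by Cell Tracker Red CMTPX staining in the red channel.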 The settings on record: BODIPY lipid droplet fluorescence, 18-24 h; for cell number change: measured here: cell count max response, cells fed with added oleic acid. An outline of the steps: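 Drosophila S3 cells got compounds at several concentrations plus oleic acid (400 uM solution). Laser-scanning cytometry with 488 nm excitation read lipid droplets at 500-530 nm and cells at 575-640 nm. Percent activity was relative to 20 uM Triacsin C.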
In general terms: In qHTS, concentration-response curves come from the screen itself.

Setting [1] is: measured here: cell number channel AC50, cells fed with added oleic acid.
[2] abbreviates: measured here: lipid fluorescence (Fed channel) AC50, cells fed with added oleic acid.

Take `CN(CC(=O)Nc1ccccc1Br)C(=O)c1cccc(S(=O)(=O)NCc2ccccc2)c1`: the cell number change worked out at 42.8%. In addition, under setting [1], the AC50 was 18.4 µM [rising, single point].

Consider `Cc1cc(CSc2ccccc2C(=O)O)on1`, for which the cell number change is 9.58%. As for `O=C(NCCc1c[nH]c2ccccc12)c1cnccn1`, the cell number change amounted to 28.9%. In addition, under setting [1], the AC50 was 4.61 µM [rising, full curve, poor fit]. For the same compound, the AC50 under setting [2] was 2.59 µM [rising, full curve].

On to `Cc1ccccc1Nc1nc(N)nc(CSc2nnnn2C)n1`, for which, under setting [2], the AC50 was 2.59 µM [rising, single point].

As to `COc1ccc(C(=O)OCc2ccccc2F)cc1S(=O)(=O)N1CCCC1`, the cell number change came to 18.2%. The AC50 under setting [2] was 9.2 µM [falling, partial curve]. `N#Cc1cccc(C(=O)Nc2cccc(S(=O)(=O)N3CCCC3)c2)c1`: the cell number change is -25.4%. For the same compound, under setting [2], the AC50 is 23.1 µM [falling, partial curve].

On to `CC(=O)Nc1ccc(NC(=O)CSc2nnc(NC(=O)c3ccco3)s2)cc1`, for which the cell number change came out at 24.2%. Under setting [2], the concentration at half-maximal activity (AC50) is 3.26 µM [rising, full curve]. Take `CC(C)NC(=O)c1ccccc1NC(=O)Cc1ccc([N+](=O)[O-])cc1`: the cell number change turned out to be 109%. In addition, the AC50 under setting [1] is 0.13 µM [falling, full curve, poor fit]. The AC50 under setting [2] was 0.116 µM [falling, full curve, poor fit].

For `COCCNC(=S)Nc1cc2oc3ccccc3c2cc1OC`, the cell number change was 20.9%. In addition, the AC50 under setting [2] was 0.259 µM [rising, full curve].

For `CCCNC(=O)COC(=O)CCC(=O)c1ccc(F)cc1`, the cell number change is 7.89%. For the same compound, under setting [2], the concentration at half-maximal activity (AC50) is 23.1 µM [falling, single point]. Take `CCOC(=O)Cn1c(-c2ccc(OC)cc2)c(-c2ccc(OC)cc2)nnc1=O`: the cell number change is -32%. The AC50 under setting [1] is 11.6 µM [falling, partial curve]. As for `O=C(C1=C(O)C(=O)N(c2ncccn2)C1c1cccc(Cl)c1)c1ccco1` (stereo not drawn), the AC50 under setting [2] is 4.61 µM [falling, single point]. Take `COc1cccc(-n2nnnc2SCC(=O)NC2CCCCC2)c1`: the cell number change came to 264%. Also, the AC50 under setting [2] is 29.1 µM [falling, single point]. Consider `CC1CCC2(CC1)NC(=O)N(CC(=O)Nc1cccc(S(=O)(=O)N3CCCC3)c1)C2=O` (stereo not drawn), for which the cell number change is -23.7%. Turning to `O=C(CNS(=O)(=O)c1ccccc1F)Nc1ccc(N2CCOCC2)cc1`, the cell number change was 46.3%. The AC50 under setting [1] was 29.1 µM [rising, single point]. Under setting [2], the AC50 was 29.1 µM [rising, single point].

`O=C(C1CC(c2ccccc2O)=NO1)N1CCCC1` (stereo not drawn): the cell number change worked out at 2.43%. Besides, the half-maximal activity concentration (AC50) under setting [2] is 29.1 µM [falling, single point].

For `O=C(Nc1ccc2ncccc2c1)c1ccccc1Br`, the cell number change is 10.7%. With `COc1ccc(C(=O)NCCn2nc(C)cc2C)cc1OC1CCN(C(C)=O)CC1`, the cell number change amounted to 0.521%. Further, the AC50 under setting [2] is 8.2 µM [rising, partial curve]. On to `O=C(CNCCC1=CCCCC1)Nc1ccccc1N1CCCCCC1`, for which the cell number change is -21.7%. With `Cc1ccc(S(=O)(=O)N2CCN(C(=O)c3ccc(S(=O)(=O)N4CCCC4)cc3)CC2)cc1`, the cell number change was -16.7%. The half-maximal activity concentration (AC50) under setting [2] was 2.59 µM [falling, partial curve]. Take `O=C(O)CCc1ccc(-c2ccc(Br)cc2)n1CC(=O)O`: the cell number change was -62%.

On to `CCS(=O)(=O)N1CCC(C(=O)NCCc2ccc(C)cc2)CC1`, for which the cell number change is -164%. Also, under setting [1], the AC50 is 0.461 µM [falling, full curve]. For the same compound, the AC50 under setting [2] was 6.51 µM [falling, partial curve]. `NC(N)=N/N=C/c1ccccc1`: the cell number change is -19.3%. Moreover, under setting [1], the AC50 is 3.26 µM [falling, single point]. The AC50 under setting [2] was 6.51 µM [falling, single point]. `CCOc1ccccc1-c1nc2c([nH]1)c(=O)n(C)c(=O)n2C`: the cell number change was found to be 10.7%.

As to `COC(=O)c1ccccc1S(=O)(=O)Nc1ccc2cn[nH]c2c1`, the cell number change is -12%. For the same compound, under setting [2], the AC50 was 0.058 µM [rising, full curve, poor fit].

Regarding `Cc1cccc(OCCNC(=S)NC(=O)c2cccnc2)c1`, the cell number change is 8.79%. For the same compound, the AC50 under setting [2] was 6.51 µM [rising, partial curve]. In the case of `COC(CN(C(=O)CCl)C(C(=O)NC1CCCCC1)c1ccccc1C)OC` (stereo not drawn), the cell number change is -20.8%. For the same compound, the AC50 under setting [2] was 9.2 µM [falling, partial curve, poor fit].

In the case of `CCN1C(=O)C2(C(C#N)=C(N)Oc3cc(C)oc(=O)c32)c2ccccc21` (stereo not drawn), the cell number change worked out at 16.4%. For the same compound, the AC50 under setting [2] is 18.4 µM [rising, single point].

Regarding `COC(=O)c1ccc(CN2CCCC(C(=O)c3ccccc3OC)C2)cc1` (stereo not drawn), the cell number change is 6.32%. Also, the AC50 under setting [2] was 5.8 µM [falling, single point].

On to `Cc1ccc(SCc2nc3ccccc3n2CC(=O)Nc2ccccc2)cc1`, for which the cell number change is -11.1%. With `CCCN1CCN(C(=S)Nc2sc(CC)cc2C(=O)OC)CC1`, the cell number change is -5.11%. For the same compound, the half-maximal activity concentration (AC50) under setting [2] is 32.6 µM [falling, single point].

On to `CC(C)C(C)(C#N)NC(=O)CSc1nc(C2CCCCC2)n(-c2ccccc2)n1` (stereo not drawn), for which, under setting [1], the AC50 was 0.651 µM [falling, single point]. Take `COc1cc(/C=N/NC(N)=S)ccc1OCC(=O)Nc1ccc(C)c(C)c1`: the cell number change was -39.1%. The AC50 under setting [1] was 16.4 µM [falling, single point]. In addition, under setting [2], the half-maximal activity concentration (AC50) was 0.731 µM [rising, full curve].

Consider `CCN(CC)c1ccc(NS(=O)(=O)c2ccc(OC)cc2)cc1`, for which the cell number change is -4.04%. The AC50 under setting [1] is 0.082 µM [falling, full curve, poor fit]. `Cc1ccc(-c2nc3ncccc3o2)cc1NC(=O)c1cccnc1`: the cell number change was -33.5%. Further, the AC50 under setting [1] is 29.1 µM [falling, single point].

Turning to `c1ccc2c(c1)oc1c(Nc3ccc4c(c3)OCO4)ncnc12`, the cell number change was -22%. For the compound `CCSc1nnc(NC(=O)c2cccc(S(=O)(=O)N(C)c3ccccc3)c2)s1`, the cell number change was found to be 33.4%. Besides, the AC50 under setting [1] was 18.4 µM [rising, single point]. Moreover, the AC50 under setting [2] was 20.6 µM [rising, partial curve]. Regarding `CC1Cc2ccccc2N1C(=O)CSc1nnc(CNc2ccccc2)o1` (stereo not drawn), the half-maximal activity concentration (AC50) under setting [1] is 3.26 µM [rising, partial curve, poor fit] and the AC50 under setting [2] was 0.517 µM [rising, full curve].

For `CCOc1ccccc1CNS(=O)(=O)c1ccc2c(c1)oc(=O)n2C`, the cell number change is -0.816%. The AC50 under setting [2] was 0.13 µM [falling, full curve, poor fit]. With `C/C(CC(=O)NC1CCCCC1)=N\NC(=O)c1ccccc1C`, the cell number change was -5.26%. Consider `Cc1ccc(OCC(=O)NNC(=O)CSc2nnc(-c3ccc(C)cc3)n2C)cc1`, for which the cell number change is -31.4%. Moreover, under setting [1], the AC50 is 0.731 µM [rising, partial curve, poor fit]. Moreover, the AC50 under setting [2] was 3.26 µM [falling, partial curve, poor fit]. `CCCn1c(N)c(C(=O)CSc2nc3ccccc3c(=O)n2-c2ccc(OC)cc2)c(=O)[nH]c1=O`: the cell number change was determined as 12.2%. In addition, the AC50 under setting [2] is 29.1 µM [rising, single point]. As to `O=C(O)c1ccc(/C=N/NC(=O)c2ccc(Br)cc2)cc1`, the concentration at half-maximal activity (AC50) by setting is: under setting [1], 0.82 µM [falling, single point]; under setting [2], 0.58 µM [falling, single point]. In the case of `CCc1noc(C)c1C(=O)Oc1ccc(N(C)S(=O)(=O)c2ccccc2)cc1`, the cell number change is -35.3%. Further, the AC50 under setting [1] was 29.1 µM [falling, single point].

In the case of `COc1ccccc1NC(=O)CSc1nnc(Cc2cccn2C)n1-c1ccc(F)cc1`, the cell number change stood at 13.5%. Further, the AC50 under setting [2] was 6.51 µM [rising, partial curve, poor fit]. For `Cc1ccc(C(=O)/C=C\C(=O)c2ccc(C)cc2)cc1`, the cell number change is -57.3%. Further, under setting [1], the AC50 is 16.4 µM [falling, single point]. Under setting [2], the AC50 is 18.4 µM [falling, single point]. With `O=C(N/N=C/c1ccccn1)c1ccc(NC(=O)c2ccccc2Cl)cc1`, the cell number change was -13.2%. For the same compound, the AC50 under setting [2] was 4.47 µM [rising, full curve, poor fit]. As for `Cc1ccc(NC(=O)COC(=O)C2CC2)cc1Cl`, the cell number change was -4.2%. Further, under setting [1], the AC50 was 0.13 µM [falling, full curve, poor fit]. Besides, the AC50 under setting [2] was 0.103 µM [falling, full curve, poor fit]. Consider `O=C(NCc1ccccc1)C1CC(=O)N(c2ccc(OCC(=O)N3CCOCC3)cc2)C1` (stereo not drawn), for which the cell number change was found to be 25%. In addition, the AC50 under setting [1] is 1.64 µM [rising, full curve, poor fit]. On to `Cc1ccc(CNC(=O)CN2C(=O)NC(C)(c3ccccc3Cl)C2=O)cc1` (stereo not drawn), for which the half-maximal activity concentration (AC50) under setting [1] is 6.51 µM [rising, single point] and the AC50 under setting [2] was 6.51 µM [rising, single point].

Consider `COc1cccc(OCCNC(=O)Nc2cc(F)c(F)cc2Cl)c1`, for which the AC50 under setting [2] was 0.116 µM [falling, partial curve, poor fit]. Take `COc1cc(OC)c(C(=O)NC23CC4CC(CC(C4)C2)C3)cc1OC`: the cell number change was -42.1%. Also, the AC50 under setting [1] is 18.4 µM [falling, single point]. Take `NNc1ccc(Cc2ccc(Cl)cc2Cl)nn1`: the cell number change was -0.261%. Also, the AC50 under setting [1] was 6.51 µM [falling, single point].

As for `Cc1sc2ncnc(SCC(=O)NC(=O)NCc3ccco3)c2c1C`, the cell number change came out at 55.5%. Also, under setting [1], the AC50 is 20.6 µM [rising, single point].

For the compound `O=C(Nc1ccccc1C(=O)Nc1ccc2c(c1)OCO2)c1cccs1`, the AC50 reads like this: under setting [1], 0.231 µM [rising, full curve]; under setting [2], 0.517 µM [rising, full curve].

Regarding `COC(=O)c1nnn(CC(=O)NC(=O)Nc2cccc(Cl)c2C)c1C(=O)OC`, under setting [2], the AC50 is 0.461 µM [rising, single point]. As to `CCOC(=O)c1cnc2nc(C)[nH]n2c1=O`, the cell number change was -6.96%. The AC50 under setting [2] is 0.00411 µM [falling, full curve, poor fit].

As for `COc1ccc(Cl)cc1C(=O)CSc1nc(N)cc(N)n1`, the cell number change came to 20.4%. Further, under setting [1], the AC50 was 1.84 µM [rising, full curve, poor fit]. Further, the AC50 under setting [2] was 0.731 µM [rising, full curve]. `COC(=O)N/N=C/c1cn(Cc2ccc(Cl)cc2Cl)c2ccccc12`: the cell number change is -25.1%. The AC50 under setting [2] is 3.66 µM [falling, partial curve]. Take `O=C(CNC(=O)c1ccc(F)cc1)N/N=C/c1cccnc1`: the cell number change is -3.97%. Under setting [1], the AC50 is 5.17 µM [rising, single point]. Further, the AC50 under setting [2] was 7.31 µM [falling, single point].
